Measured values reported in the supplement of paper PMC3334620.
The full ranking holds about 33,000 sequences; the median of “E-score (-0.5 to 0.5)” is about -0.0014, and the highest 2% start at about 0.25. The list shows a part of the results.

target: T1, Cad1 (UniProt P24813); test: PBM E-score (8-mer binding enrichment) (E-score (-0.5 to 0.5)); higher = stronger / more preferred TF binding; conditions: protein concentration: 100 nM; construct: GST-full length
T1 sequence: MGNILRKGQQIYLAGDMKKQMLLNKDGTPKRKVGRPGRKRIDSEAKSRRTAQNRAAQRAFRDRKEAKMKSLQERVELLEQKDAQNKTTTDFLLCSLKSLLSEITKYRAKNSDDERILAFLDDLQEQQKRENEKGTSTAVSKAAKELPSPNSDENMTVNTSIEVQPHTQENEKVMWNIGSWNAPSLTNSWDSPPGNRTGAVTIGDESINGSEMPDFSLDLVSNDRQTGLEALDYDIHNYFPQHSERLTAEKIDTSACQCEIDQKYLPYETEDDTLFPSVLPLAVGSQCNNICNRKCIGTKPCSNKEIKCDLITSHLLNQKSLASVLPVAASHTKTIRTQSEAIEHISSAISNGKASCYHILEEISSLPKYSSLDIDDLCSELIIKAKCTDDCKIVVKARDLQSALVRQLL
In short: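 For each ungapped eight-base word taken together with its reverse complement, the Universal PBM Analysis Suite assigned an E-score. Binding data came from GST-tagged yeast transcription factors, applied at about 100-200 nM, on universal all-10-mer Agilent arrays made double-stranded by primer extension. Fluorescent anti-GST marked bound protein, and scans were normalised with masliner.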

Sequence	PBM E-score
CAAGATAG	-0.0264
GGTACAGA	0.0302
CCTTAATA	0.0381
GATGCATA	0.124
CCCCCCCA	-0.433
ACTGGTGA	-0.134
CACTCTCC	0.00042
GACCGCGA	0.0744
CCACTCAC	0.00467
CATCCTGC	0.0554
GCGATTAC	0.0714
AACCTTTC	-0.0922
ATTGTCGG	0.11
GCGTGAGA	0.113
ATTTTTGC	0.171
AACCAGCA	-0.0769
CTAGAGCC	-0.137
CCACAACC	0.165
AAGAGAGT	-0.187
CGGAAAAG	-0.0157
CAAGTTGG	0.105
ATCCCATA	-0.182
CCCGACAC	-0.0656
AGTCACAA	0.0968
ATACTGCG	-0.003

Sequence	PBM E-score
CATGGTCC	-0.106
CATGCGGC	0.0407
ATAGCAAA	0.0497
GTATGAGA	0.104
GCAAGCCC	-0.154
CCAAGCGA	-0.075
AAGCGCGG	-0.0419
ATGAGGAA	0.0799
CACATGGG	-0.0669
AGCATCCC	-0.231
AGACCGAT	-0.101
AGTGGGTA	-0.00773
GTTGGGGA	-0.0964
TCTCCGCA	-0.0852
CACGCAGA	0.00837
AAAAACGA	0.183
TATGGGAA	0.00165
ACTACAAC	0.0401
AGTCTGCG	-0.213
GAAGCGTC	-0.0481
GAACGGGC	-0.166
CCTCCTCG	-0.0907
CAGGTACC	-0.0962
CGAGAACG	0.0208
AGGGATCC	-0.237

Sequence	PBM E-score
ATGTCGCG	0.116
GGTATCAA	-0.081
AGCACGAG	0.156
GAAGAACC	-0.217
AATGAATT	0.163
GCGAGACC	-0.0863
ACTTGTTC	0.16
GCTGACCA	0.252
ACAGGACC	-0.13
CCTCCCGC	-0.0731
GTTAGCGA	0.133
AAGGAATC	0.0577
ACAGGCAG	-0.0835
ACACCTGA	0.0295
ACACGGCA	-0.175
CTCCGCTC	-0.158
ATTACCCG	0.0888
ATGCTTCC	0.033
TCAGCTCA	0.147
CTCCGGTA	-0.0568
AAAGTCTG	0.102
CACTGACA	0.134
CATCAATG	0.0128
CTGTTCAC	0.0438
GTTTTTGA	0.0961

Sequence	PBM E-score
ATGTACTC	-0.0498
ACGGCATC	-0.116
ACCCAATG	-0.0501
AACTTCGT	-0.0966
CCCACCCG	0.0355
GTTGTGCA	-0.181
AAGACGGT	-0.205
CCGGTGGC	-0.211
ACCTTATC	-0.0737
GCCTTCTA	-0.277
AGCCTCAA	-0.0782
AAGGTTGT	-0.0389
CCCGCACA	-0.0532
AACCTGGG	-0.0449
GCAAAGTA	0.114
TCCCCACA	-0.219
TTAACTAA	0.291
GCTTTGCC	-0.183
AGCGGCGA	0.0777
AGTCAATA	0.0384
ACGGATCA	0.215
CCGGTATA	-0.0258
AAATTCTA	0.127
GCTTCCAA	-0.0323
CCTTACCC	-0.158

Sequence	PBM E-score
GCGCAGGA	-0.139
CTTCTATA	-0.00317
CATACGAG	-0.0876
AATACCCT	-0.00186
AAAAGCCC	-0.0561
AGTGAGGA	0.0115
AAAGCTTG	-0.0355
GGGTTCTA	-0.193
GGAGCAAA	-0.169
ACGGCGGG	0.132
CGGGGCGC	-0.277
AACAGGCC	-0.19
ATGTAATG	0.281
CCAAACCC	-0.0556
CAAGCCTC	-0.0653
TTCAGAAA	-0.0441
AGTACTTG	0.104
CGAATATA	0.13
CGATCAGA	-0.0457
ACCTCAAT	-0.0754
TAATTGGA	0.106
AAGTGATA	-0.118
AAGTTTCG	0.0162
CGACCGCC	-0.231
TAAAATCA	0.102

Sequence	PBM E-score
CACGGAGA	0.0828
AACATGTT	0.0389
CGGGCACA	-0.15
GCCGATAA	0.0394
CTCCAGGA	-0.0268
AACTTACC	0.0034
GACTAAAA	0.114
ACGTATAG	-0.136
CTAACAAC	0.115
GTTTCCAA	0.0109
AGTCCCTA	-0.049
GGGTCAAA	-0.108
ATGCGCAG	-0.0137
ATAGGATA	0.144
ATAATCAA	0.157
ATTTGACA	0.242
CCATCCGA	0.0418
TATGATAA	0.236
AAACGCAT	-0.019
TCGGGAAA	0.163
GTCTAATA	-0.0209
CTAAGGGC	-0.0561
GCAATTTA	0.244
AGAGTGCC	-0.0764
CGGCGGAG	-0.0139

Sequence	PBM E-score
CCTGCTCG	-0.198
CTCGACGA	-0.175
CTCAGGGA	-0.205
GCCAATCC	-0.0512
GCACTGGA	-0.105
GATCGCTA	0.0219
AAAGTAGA	-0.137
ATGCGGCA	0.0716
GCAGGGGC	-0.0952
AGAAACCG	-0.0713
GTCTGATA	-0.0357
TATTGGAA	-0.133
ACTTTACA	0.0245
AGGCTCGG	-0.0962
CAGCGCAC	0.0633
ATTGCCGG	0.13
CGCTCTAC	-0.0487
CGGATAAA	0.226
CCCGACTA	-0.0865
CGTCTTTC	-0.125
ACTTTCTG	-0.00023
CGACGAAC	0.113
CGCTTATA	0.178
GCAGTAGA	-0.167
AAGCAAAG	-0.102

Sequence	PBM E-score
AGATGCCC	0.00043
CTGTGTCA	-0.0643
CCTATTAC	-0.0089
CGCGATCA	0.111
CACCTCTG	-0.0801
ACGACCCT	-0.215
AGGTGGTA	-0.0065
CTCTCCAC	-0.192
ACGTTTCT	-0.133
GCGAATGA	0.111
AATCCAAC	-0.0721
AAGGCTCG	-0.185
CCCTTCGG	-0.285
ACCGCGGC	0.0121
ACTACCGC	-0.0705
CAACCTGC	-0.00333
AGACTCCC	-0.408
TGCCTCAA	-0.222
CACTCCAC	-0.0836
ATCTAGGC	-0.102
TCACGAAA	0.104
CGCCGGCC	-0.124
ACGCTTCG	-0.165
AGACTCCT	-0.0765
GCAGATGC	0.0377

Sequence	PBM E-score
AATGCTTG	-0.0597
TTGCTAAA	-0.0366
GTCCGCCA	-0.176
ACATTGTA	0.0745
TAACAAAA	0.177
CACAGGCG	-0.0182
AAGCCAAT	-0.0633
TCGTTGCA	0.108
GGCCACAC	-0.0179
ACTGGTAA	0.163
CATTTCAG	-0.00563
GCCGCAGA	0.0302
GCTCGCCA	0.0777
AAACGTGA	-0.024
AGCAGTTG	0.0783
GCTCCCAA	-0.247
TGCACCAA	-0.196
AGGCTGCC	-0.168
TATGTTCA	0.123
CATACACC	0.00325
AACGTTGA	0.131
AACACACG	-0.0441
CGATTGTA	0.224
ATTGCCTC	-0.0335
CAAGGGTA	-0.0295

Sequence	PBM E-score
CGGAGAGC	-0.139
AGCTAAAT	-0.0617
GAAAACTA	-0.0161
ATATGGCC	-0.0282
CTCGATTA	0.276
CGGGCGTC	-0.0378
GCAAGGCA	-0.141
AGAGTTGC	0.0268
GGAAACAC	0.189
ACGTGGCT	-0.121
ATCGTGGA	-0.0737
GAAGCGAC	-0.0449
AAGCCTAT	0.0413
CGAGGATA	0.00878
AAAGGCGT	-0.124
AACCAAGG	-0.00395
GCCTCAAA	-0.2
GGTTATAA	0.048
CAACCACG	0.105
CTGCAGGC	-0.18
GCTAAACA	0.143
CTATGCCA	-0.143
CGTGAAAG	0.00161
ACTGCCCA	-0.143
ACCAGCTA	-0.062

Rewritten in markdown: entries from further up

| Sequence | PBM E-score |
| --- | --- |
| AGAGTTGC | 0.0268 |
| GGAAACAC | 0.189 |
| ACGTGGCT | -0.121 |
| ATCGTGGA | -0.0737 |
| GAAGCGAC | -0.0449 |

(further entries)

Sequence	PBM E-score
ATTATCCC	0.0728
ATGCGCAA	0.107
AGATGATC	-0.104
GTCTGCGA	0.0486
AGTCGTCG	-0.213
TGCAAGCA	-0.109
CGTCATTC	0.249
CTAAGTGC	-0.0806
CCATAGGG	-0.0667
CATGCTCA	0.049
AGCCTTCG	-0.153
CATGCCTC	0.113
GCCGCGTA	-0.0177
AGTAGGCC	0.011
AACTGGTC	-0.107
AGAGGGTG	-0.0923
GTAGCTAA	-0.0506
CAGGCAGA	-0.011
CTAGCGGC	-0.184
CCTTGCAC	0.0638
CTGAGCAA	0.0749
AGCCGAAG	-0.037
GAACGTTC	-0.0713
GAGCGTAC	-0.0811
AGCGATTA	0.0413

Sequence	PBM E-score
ATTGCCAC	-0.0291
CTGAAAAG	-0.0297
ATCCATGA	-0.2
CAGGACCA	-0.127
CCGTGGCC	-0.193
CGAGCACG	0.03
AGCGAGAT	0.142
CTTAAGGC	-0.0602
ATCGCTTC	0.0333
GCAAACCA	0.123
CGTAGTTC	-0.214
GGTTAAAC	0.0202
GCCGAGGC	0.241
ATTTGGGC	-0.0948
CTGGAGCC	-0.193
AATGGGGT	-0.1
CCTACAGA	-0.188
ATCCTAGG	-0.0518
ACCCCGGT	-0.324
AACCAAAC	-0.102
AGCACACC	-0.0927
ACCAAAAA	0.278
ATTTAGGC	0.041
CAGATCTC	0.105
AGGCTCCC	-0.299

Sequence	PBM E-score
TCCAACCA	-0.0348
ATCTAGGG	-0.0713
ATCGTGCC	0.102
GACGTCTC	-0.0334
GAGTGAAA	0.0627
ATCAGGAT	0.163
CTTCAAAG	-0.146
CAGTCCAC	-0.28
CCAGGTAG	-0.00184
CGACGTAG	-0.197
ATGTACAG	-0.088
CAATTCGA	-0.0688
GCTTATCC	0.0881
ATCCGGTA	-0.0922
AGAATTTC	-0.0202
AGAGATGC	-0.158
ATGTCCAG	-0.011
ATCCGGAT	0.0462
ACATCAAA	-0.0507
CCAAAGGA	-0.093
ACCGTACG	-0.127
GGATCGAC	-0.0419
ATTTGAAA	0.251
ACAACCCT	-0.16
CTACCAAC	0.0578

Another view of part of the listing above:

| Sequence | PBM E-score |
| --- | --- |
| AGAGTGCC | -0.0764 |
| CGGCGGAG | -0.0139 |
| CCTGCTCG | -0.198 |
| CTCGACGA | -0.175 |

Additional entries follow.

Sequence	PBM E-score
GGACCGCA	-0.0231
ACTCAACA	0.127
CGTGAGGA	-0.0764
AGACGCAG	-0.0654
CTTACCGC	0.0543
GCCAATGA	-0.202
GACGCTGC	-0.00572
AGTTACCC	-0.0809
ACTAAAGA	-0.138
CAGTTTTA	0.0321
ACCCTAGA	-0.0611
CCCCGGGC	-0.309
CTGTGGAC	-0.0582
CAAGGCAC	-0.154
GTAGTTCA	-0.00498
AAGCACTG	0.201
TATAAGCA	0.213
GTACCTGA	0.0805
AGATATTG	0.106
